Like-named read-outs stand apart in the source and are kept apart here. No constants are given. Whether binding was seen depends on the method and setting. Binding seen in cells or lysates may run through a third protein. Some results given as binding are weak or reduced against the parent protein; the word gives no strength. For some assays here: Tags and fused reporters may be left off the sequences shown. One block for each molecule: values may come before it.
Columns and labels:
[1] = molecular target: T1, RNF144A (Ring Finger protein 144A) (human (endogenous in PN12 and MES23 glioma stem cells)) (UniProt P50876); assay: co-IP; Pierce Crosslink magnetic IP and Co-IP kit; lysates of PN12 and MES23 glioma stem cells, untransfected or transfected with the indicated plasmids; IP with anti-ZDHHC18, anti-ZDHHC23 or anti-RNF144A antibodies, western blot
T1 sequence: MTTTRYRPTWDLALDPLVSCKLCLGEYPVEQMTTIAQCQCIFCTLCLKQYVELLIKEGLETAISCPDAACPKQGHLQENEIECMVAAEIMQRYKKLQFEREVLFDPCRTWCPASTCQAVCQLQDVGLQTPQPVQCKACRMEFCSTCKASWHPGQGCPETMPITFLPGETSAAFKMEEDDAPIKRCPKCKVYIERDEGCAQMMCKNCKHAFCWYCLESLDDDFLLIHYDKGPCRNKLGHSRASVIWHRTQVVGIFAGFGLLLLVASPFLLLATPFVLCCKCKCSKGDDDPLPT

Protein sequences, listed by entry. Tags and fused reporters are not part of them.
UniProt P35226: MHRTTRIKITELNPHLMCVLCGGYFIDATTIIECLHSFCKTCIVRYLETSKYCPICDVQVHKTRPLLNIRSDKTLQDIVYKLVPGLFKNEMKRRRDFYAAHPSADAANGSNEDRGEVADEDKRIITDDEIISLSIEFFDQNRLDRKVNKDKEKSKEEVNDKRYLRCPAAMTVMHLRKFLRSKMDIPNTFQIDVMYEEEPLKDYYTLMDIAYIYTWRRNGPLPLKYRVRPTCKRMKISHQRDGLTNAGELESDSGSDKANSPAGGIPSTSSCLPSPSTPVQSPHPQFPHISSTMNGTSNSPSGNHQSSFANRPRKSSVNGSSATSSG

[2] = molecular target: T2, ZDHHC23 (human (endogenous in PN12 and MES23 glioma stem cells)) (UniProt Q8IYP9); assay: as above
T2 sequence: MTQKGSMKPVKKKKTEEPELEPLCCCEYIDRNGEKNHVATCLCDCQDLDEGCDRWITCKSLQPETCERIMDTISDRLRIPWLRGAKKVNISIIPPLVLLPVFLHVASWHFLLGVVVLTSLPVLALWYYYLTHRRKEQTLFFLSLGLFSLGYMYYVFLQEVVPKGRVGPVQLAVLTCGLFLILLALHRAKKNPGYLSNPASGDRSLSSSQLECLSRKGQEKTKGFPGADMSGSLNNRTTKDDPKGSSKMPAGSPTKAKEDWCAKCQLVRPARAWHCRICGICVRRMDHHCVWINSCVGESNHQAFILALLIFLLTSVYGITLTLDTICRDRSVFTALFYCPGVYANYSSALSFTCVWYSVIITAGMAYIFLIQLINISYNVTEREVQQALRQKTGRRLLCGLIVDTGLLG

[3] = molecular target: T3, ZDHHC18 (human (endogenous in PN12 and MES23 glioma stem cells)) (UniProt Q9NUE0); assay: as above
T3 sequence: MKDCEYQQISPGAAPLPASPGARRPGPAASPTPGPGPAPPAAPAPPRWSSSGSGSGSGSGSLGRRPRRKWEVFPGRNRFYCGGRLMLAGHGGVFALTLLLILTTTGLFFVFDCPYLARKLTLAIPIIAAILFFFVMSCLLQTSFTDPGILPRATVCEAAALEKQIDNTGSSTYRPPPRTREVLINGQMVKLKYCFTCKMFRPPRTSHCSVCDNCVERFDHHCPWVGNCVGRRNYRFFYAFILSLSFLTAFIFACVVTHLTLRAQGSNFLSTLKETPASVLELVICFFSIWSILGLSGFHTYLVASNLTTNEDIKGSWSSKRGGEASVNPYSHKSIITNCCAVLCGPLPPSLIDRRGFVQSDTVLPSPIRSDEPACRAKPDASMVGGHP

[4] = molecular target: T1, RNF144A (Ring Finger protein 144A) (human (endogenous in PN12 and MES23 glioma stem cells)); assay: as above; remark: listed apart in the source
Myc-RNF144A = molecular target: T4, Myc-RNF144A (UniProt P50876); assay: co-IP; lysates of 293 T cells expressing FLAG-ZDHHC18, HA-ZDHHC23 and Myc-RNF144A; immunoprecipitation, then blots with anti-FLAG, anti-HA and anti-Myc antibodies
T4 sequence: T1 sequence

B2: ZDHHC23 (protein, UniProt Q8IYP9 1-409)
chain: T2 sequence
binding [3]: binds

B4: HA-ZDHHC23 (protein, UniProt Q8IYP9 1-409)
chain: T2 sequence
binding (Myc-RNF144A): binds

B6: FLAG-ZDHHC18 (protein, UniProt Q9NUE0 1-388)
chain: T3 sequence
binding (Myc-RNF144A): binds

More lines, now with the values ahead:

binding [1]: binds
Molecule: BMI1 polycomb ring finger oncogene (BMI1) (from UniProt P35226 1-326)

binding [2]: binds | binding [3]: binds
B1: RNF144A (Ring Finger protein 144A) (protein, UniProt P50876 1-292)
chain: T1 sequence

binding [4]: binds
B3: ZDHHC23, over-expressed (LentiORF) (protein, UniProt Q8IYP9 1-409)
chain: T2 sequence

binding [4]: binds
B5: ZDHHC18, over-expressed (LentiORF) (protein, UniProt Q9NUE0 1-388)
chain: T3 sequence

Reference: article PMC6339410
